From paper doi:10.1101/717769
Like-named read-outs stand apart in the source and are kept apart here. No constants are given. Whether binding was seen depends on the method and setting. In cells and extracts the contact can be indirect. Some binding calls cover weakened binding; strength is not graded here.

Amino acid sequences for entries named in this document (tags omitted).
UniProt P26038: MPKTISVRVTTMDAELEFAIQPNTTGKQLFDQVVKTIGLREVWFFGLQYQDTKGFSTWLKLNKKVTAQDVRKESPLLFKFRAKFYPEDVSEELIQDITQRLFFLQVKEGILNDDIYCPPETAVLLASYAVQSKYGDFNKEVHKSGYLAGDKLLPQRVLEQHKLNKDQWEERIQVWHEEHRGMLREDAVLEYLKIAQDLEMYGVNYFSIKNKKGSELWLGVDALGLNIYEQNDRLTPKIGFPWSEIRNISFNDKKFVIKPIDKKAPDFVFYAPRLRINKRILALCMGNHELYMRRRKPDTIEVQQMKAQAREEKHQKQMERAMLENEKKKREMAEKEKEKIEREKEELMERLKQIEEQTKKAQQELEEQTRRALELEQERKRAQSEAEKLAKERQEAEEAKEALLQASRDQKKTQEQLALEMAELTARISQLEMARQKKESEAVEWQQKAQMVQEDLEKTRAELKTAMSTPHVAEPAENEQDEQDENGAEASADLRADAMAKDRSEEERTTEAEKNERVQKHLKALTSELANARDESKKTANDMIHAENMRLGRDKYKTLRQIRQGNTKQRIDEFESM
UniProt P15311: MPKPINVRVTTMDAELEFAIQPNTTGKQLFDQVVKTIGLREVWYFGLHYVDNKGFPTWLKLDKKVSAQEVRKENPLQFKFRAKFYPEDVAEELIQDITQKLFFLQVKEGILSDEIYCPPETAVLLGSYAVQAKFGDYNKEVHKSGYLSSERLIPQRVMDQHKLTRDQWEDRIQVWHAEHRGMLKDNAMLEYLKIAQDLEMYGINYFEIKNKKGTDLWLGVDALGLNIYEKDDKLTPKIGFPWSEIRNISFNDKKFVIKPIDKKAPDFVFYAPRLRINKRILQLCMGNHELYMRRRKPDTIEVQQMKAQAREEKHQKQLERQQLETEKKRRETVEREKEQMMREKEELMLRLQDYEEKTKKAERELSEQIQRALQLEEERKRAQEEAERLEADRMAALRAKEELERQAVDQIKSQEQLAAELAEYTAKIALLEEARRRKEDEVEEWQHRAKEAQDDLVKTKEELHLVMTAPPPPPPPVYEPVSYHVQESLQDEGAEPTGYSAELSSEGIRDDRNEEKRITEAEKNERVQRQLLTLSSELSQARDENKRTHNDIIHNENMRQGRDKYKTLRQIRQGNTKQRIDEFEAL
UniProt P35241: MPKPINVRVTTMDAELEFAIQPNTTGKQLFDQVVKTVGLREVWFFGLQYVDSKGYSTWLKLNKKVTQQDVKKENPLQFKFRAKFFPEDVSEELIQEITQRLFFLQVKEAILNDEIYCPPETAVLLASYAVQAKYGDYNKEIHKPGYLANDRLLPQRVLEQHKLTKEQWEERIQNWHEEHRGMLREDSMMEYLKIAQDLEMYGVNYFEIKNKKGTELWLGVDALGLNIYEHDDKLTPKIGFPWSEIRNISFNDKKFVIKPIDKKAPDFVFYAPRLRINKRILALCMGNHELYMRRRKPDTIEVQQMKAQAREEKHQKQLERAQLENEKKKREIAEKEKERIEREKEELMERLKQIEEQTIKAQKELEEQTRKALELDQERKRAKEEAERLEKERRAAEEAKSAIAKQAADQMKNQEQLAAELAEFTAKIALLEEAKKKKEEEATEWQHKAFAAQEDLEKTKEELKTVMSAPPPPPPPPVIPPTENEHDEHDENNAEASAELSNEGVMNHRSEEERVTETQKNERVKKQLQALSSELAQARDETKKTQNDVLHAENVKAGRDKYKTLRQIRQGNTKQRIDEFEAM
UniProt Q8IZL8: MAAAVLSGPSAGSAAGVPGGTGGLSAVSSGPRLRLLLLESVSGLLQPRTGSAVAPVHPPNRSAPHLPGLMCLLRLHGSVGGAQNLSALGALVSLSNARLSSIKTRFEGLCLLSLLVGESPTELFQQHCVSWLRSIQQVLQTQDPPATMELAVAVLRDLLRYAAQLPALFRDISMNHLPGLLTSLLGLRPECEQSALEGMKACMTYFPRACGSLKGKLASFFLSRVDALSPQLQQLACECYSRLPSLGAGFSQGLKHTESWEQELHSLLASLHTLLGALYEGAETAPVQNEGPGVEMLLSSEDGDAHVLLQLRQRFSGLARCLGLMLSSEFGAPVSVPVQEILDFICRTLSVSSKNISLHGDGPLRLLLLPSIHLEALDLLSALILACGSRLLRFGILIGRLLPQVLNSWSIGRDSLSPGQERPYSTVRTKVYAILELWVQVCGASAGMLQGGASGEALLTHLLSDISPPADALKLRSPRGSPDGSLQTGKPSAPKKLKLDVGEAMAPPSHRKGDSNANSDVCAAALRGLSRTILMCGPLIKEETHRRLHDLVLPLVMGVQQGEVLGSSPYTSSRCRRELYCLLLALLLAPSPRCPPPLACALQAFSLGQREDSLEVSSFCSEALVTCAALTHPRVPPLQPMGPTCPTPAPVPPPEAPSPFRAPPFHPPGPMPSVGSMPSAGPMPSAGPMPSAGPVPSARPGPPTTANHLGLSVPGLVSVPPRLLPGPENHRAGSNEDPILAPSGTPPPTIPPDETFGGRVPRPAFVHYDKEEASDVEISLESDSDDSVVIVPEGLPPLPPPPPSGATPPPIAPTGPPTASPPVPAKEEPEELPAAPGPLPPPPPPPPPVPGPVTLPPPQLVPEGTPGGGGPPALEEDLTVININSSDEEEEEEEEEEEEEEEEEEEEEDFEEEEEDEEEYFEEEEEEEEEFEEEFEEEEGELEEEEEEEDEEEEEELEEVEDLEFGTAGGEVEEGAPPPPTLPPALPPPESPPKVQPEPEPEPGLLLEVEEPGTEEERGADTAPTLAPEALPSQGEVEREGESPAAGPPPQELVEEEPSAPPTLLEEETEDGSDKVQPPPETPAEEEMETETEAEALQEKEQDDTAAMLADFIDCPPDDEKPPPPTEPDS
UniProt O14646: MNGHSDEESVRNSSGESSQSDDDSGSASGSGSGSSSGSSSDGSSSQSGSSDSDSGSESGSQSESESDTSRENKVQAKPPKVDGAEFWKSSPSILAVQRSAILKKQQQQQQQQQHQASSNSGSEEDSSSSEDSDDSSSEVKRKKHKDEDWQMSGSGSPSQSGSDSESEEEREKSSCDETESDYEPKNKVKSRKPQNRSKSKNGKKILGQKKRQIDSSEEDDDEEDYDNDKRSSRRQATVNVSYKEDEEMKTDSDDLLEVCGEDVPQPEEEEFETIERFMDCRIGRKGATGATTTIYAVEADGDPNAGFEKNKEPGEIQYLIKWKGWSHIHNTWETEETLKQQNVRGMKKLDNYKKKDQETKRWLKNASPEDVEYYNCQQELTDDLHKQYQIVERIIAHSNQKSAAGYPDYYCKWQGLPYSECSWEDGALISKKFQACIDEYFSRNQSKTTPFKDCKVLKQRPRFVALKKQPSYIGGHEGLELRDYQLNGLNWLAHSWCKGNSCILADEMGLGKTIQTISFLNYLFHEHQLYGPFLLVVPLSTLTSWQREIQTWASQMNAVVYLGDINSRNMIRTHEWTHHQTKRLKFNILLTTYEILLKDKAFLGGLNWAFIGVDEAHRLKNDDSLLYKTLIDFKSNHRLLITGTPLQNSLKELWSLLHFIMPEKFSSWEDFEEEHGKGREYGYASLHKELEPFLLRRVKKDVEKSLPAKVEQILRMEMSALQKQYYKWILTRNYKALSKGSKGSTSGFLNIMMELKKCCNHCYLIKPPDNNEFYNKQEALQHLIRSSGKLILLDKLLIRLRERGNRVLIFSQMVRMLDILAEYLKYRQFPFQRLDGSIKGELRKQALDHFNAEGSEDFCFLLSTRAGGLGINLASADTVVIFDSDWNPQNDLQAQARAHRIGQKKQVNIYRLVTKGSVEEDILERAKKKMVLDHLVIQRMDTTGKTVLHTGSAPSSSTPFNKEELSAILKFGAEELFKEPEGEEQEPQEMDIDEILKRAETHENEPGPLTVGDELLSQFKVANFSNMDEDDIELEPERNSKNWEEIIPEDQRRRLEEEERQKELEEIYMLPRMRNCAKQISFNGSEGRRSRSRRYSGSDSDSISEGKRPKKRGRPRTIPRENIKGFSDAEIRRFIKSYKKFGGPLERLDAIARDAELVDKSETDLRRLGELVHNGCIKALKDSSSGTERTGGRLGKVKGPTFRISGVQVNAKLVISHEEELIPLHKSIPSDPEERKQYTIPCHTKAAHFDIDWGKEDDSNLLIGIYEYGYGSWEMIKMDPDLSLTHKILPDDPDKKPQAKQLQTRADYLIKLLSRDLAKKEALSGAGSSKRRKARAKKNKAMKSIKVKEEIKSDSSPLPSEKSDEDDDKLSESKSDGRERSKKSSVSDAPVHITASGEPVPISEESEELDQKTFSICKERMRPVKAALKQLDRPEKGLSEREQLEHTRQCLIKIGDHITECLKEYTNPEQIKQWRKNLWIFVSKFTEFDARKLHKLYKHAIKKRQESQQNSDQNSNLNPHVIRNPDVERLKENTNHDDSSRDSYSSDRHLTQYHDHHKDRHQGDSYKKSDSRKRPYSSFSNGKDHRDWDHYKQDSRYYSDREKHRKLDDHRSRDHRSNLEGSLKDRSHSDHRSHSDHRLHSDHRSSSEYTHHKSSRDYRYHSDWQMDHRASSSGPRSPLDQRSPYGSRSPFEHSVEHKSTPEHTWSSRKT
UniProt Q9Y4B6: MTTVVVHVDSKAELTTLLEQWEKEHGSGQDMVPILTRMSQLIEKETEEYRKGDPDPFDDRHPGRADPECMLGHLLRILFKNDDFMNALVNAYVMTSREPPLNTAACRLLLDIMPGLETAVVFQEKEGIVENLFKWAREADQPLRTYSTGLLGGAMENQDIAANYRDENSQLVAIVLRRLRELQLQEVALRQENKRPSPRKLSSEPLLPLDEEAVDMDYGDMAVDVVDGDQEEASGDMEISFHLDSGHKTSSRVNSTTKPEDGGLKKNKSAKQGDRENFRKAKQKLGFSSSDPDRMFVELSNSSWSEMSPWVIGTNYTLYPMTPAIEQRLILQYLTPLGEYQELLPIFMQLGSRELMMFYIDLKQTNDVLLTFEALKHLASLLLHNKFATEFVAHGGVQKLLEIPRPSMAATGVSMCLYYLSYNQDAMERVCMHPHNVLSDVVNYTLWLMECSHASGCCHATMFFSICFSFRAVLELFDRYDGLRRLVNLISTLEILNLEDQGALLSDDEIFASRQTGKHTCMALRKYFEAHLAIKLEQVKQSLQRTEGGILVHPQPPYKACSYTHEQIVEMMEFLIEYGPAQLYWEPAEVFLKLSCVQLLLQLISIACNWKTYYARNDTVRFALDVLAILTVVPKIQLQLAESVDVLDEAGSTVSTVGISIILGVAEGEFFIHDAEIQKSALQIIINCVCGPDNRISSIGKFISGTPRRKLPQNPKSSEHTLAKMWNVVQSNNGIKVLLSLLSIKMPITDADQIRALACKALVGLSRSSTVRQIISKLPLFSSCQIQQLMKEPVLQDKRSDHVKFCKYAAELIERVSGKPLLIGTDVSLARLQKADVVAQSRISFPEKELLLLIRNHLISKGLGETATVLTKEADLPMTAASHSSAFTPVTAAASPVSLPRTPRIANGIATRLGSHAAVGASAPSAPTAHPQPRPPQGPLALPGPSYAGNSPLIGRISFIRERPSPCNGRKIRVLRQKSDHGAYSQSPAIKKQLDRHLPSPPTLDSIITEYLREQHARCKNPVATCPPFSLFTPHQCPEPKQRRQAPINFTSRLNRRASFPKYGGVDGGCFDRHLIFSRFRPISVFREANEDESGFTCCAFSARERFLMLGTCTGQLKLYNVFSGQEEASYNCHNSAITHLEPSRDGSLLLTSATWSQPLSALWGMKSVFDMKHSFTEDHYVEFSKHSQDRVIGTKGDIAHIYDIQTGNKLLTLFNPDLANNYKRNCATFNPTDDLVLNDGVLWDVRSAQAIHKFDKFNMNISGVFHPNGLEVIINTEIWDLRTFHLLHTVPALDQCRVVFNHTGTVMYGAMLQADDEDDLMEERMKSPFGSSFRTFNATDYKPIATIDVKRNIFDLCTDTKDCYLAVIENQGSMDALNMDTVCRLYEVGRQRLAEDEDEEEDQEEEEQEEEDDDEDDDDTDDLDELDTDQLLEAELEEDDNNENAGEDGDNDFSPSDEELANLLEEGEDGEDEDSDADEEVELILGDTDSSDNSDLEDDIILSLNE

Legend:
Flag-Merlin isoform 1 = Flag-Merlin isoform 1 (UniProt P35240); assay: co-IP
Flag-Moesin = Flag-Moesin (UniProt P26038); assay: co-IP
Flag-Ezrin = Flag-Ezrin (UniProt P15311); assay: co-IP
[1] = biological target: Flag-erythrocyte membrane protein band 4.1 (EPB41) (UniProt P11171); assay: co-IP
Flag-Radixin = Flag-Radixin (UniProt P35241); assay: co-IP
[2] = biological target: Recombinant GST-Merlin L46R (UniProt P35240); assay: pull-down
GST-Merlin (full length) = GST-Merlin (full length) (UniProt P35240); assay: pull-down
[3] = biological target: Recombinant GST-Merlin wild type (UniProt P35240); assay: pull-down
[4] = biological target: Recombinant GST-Merlin FERM domain (UniProt P35240); assay: pull-down
[5] = biological target: Endogenous Merlin (human (endogenous in IOMM-Lee)) (UniProt P35240); assay: co-IP
Flag-Merlin [6] = biological target: Flag-Merlin (UniProt P35240); assay: co-IP
Flag-Merlin [7] = biological target: Flag-Merlin (UniProt P35240); assay: co-IP; remark: listed apart in the source
Flag-Merlin ΔF118 = Flag-Merlin ΔF118 (UniProt P35240); assay: co-IP
Flag-Merlin L234R = Flag-Merlin L234R (UniProt P35240); assay: co-IP

Substance | binding (Flag-Merlin isoform 1) | binding (Flag-Moesin) | binding (Flag-Ezrin) | binding [1] | binding (Flag-Radixin) | binding [2] | binding (GST-Merlin (full length)) | binding [3] | binding [4] | binding [5] | binding (Flag-Merlin [6]) | binding (Flag-Merlin [7]) | binding (Flag-Merlin ΔF118) | binding (Flag-Merlin L234R)
PELP1 (endogenous) (from UniProt Q8IZL8 1-1130) | binds | no binding | no binding | no binding | no binding |  |  |  |  |  |  |  |  | 
CHD1 (endogenous) (from UniProt O14646 1-1710) | binds | no binding | no binding | no binding | no binding | no binding | binds | binds | binds | binds | binds |  |  | 
VPRBP/DCAF1 (endogenous) (from UniProt Q9Y4B6 1-1507) |  |  |  |  |  |  |  | binds | binds | binds | binds | binds | binds | no binding
